The nature of the experiment: qHTS Assay to Find Inhibitors of Chronic Active B-Cell Receptor Signaling. Particulars: ABC-DLBCL IkBa-CBG/CBR reporter, luminescence ratio (green luciferase fused to IkBa over red control in TMD8 lymphoma cells), 4 h. In outline: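 Concentration-response series (up to 46 uM) were applied to TMD8 dual-reporter cells for 4 h at 37C with doxycycline. Green/red ratio, after filter-overlap correction, defined %Activity; red signal alone was normalised to basal cells and zero luminescence.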

Where [1] appears, read: measured here: CBR red luminescence, cell number.
Where [2] appears, read: measured here: IkBa-CBG green luminescence.

The other results are listed elsewhere or left out. Further columns of the screen follow, without active or inactive calls. Most of these compounds were active or inconclusive in the main read-out, so they are no random draw. Words in brackets tell the shape of the fitted curve; partial curves, single points and poor fits give uncertain potencies. Square brackets hold non-standard residues; d marks the D form. Peptide text beside a SMILES is read from it. * marks the point of attachment. Hyp = O=C(O)[CH]1C[CH](O)CN1; Cbz = O=C(OCc1ccccc1)*; OBn = c1ccc(CO*)cc1

The AC50 is the concentration at which the activity in the assay is half-maximal.

Consider `O=C1CC(c2ccc(Cl)cc2)CC(=O)C1CS(=O)(=O)c1ccccc1` (stereo not given), for which the AC50 under setting [1] was 15.8 µM [falling, partial curve, poor fit]. On the same count and under the same terms, as for `O=C(Cc1ccc(Cl)cc1)c1ccc(O)cc1`, the figure is 11.2 µM [falling, partial curve, poor fit].

`CCC1C/C(=C\c2cc(OC)c(OC)cc2OC)C(=O)/C(=C/c2cc(OC)c(OC)cc2OC)C1` (stereo not given): the AC50 runs as follows: under setting [1], 11.2 µM [falling, partial curve, poor fit]; under setting [2], 22.4 µM [rising, partial curve, poor fit].

Take `COc1ccc(OC)c(CCNC(=O)C(=O)Nc2ccc3nc4n(c(=O)c3c2)CCCCC4)c1`: the AC50 under setting [1] was 11.2 µM [rising, partial curve, poor fit]. For `COc1ccc(CN(C(=O)CSc2nnc(-c3c[nH]c4ccccc34)o2)c2ccc(F)cc2)cc1OC`, the AC50 by setting is: under setting [1], 20.6 µM [falling, partial curve]; under setting [2], 18.4 µM [rising, single point]. In the case of `CCC(OCC(O)CN1CCN(CCN2C(=O)c3cccc4cccc(c34)C2=O)CC1)c1ccccc1` (stereo not given), under setting [1], the AC50 is 29.1 µM [falling, single point]. The same measure, in the same setting: as for `COc1ccc(CCN(C)Cc2ccc(OCc3ccccc3)c(OC)c2)cc1OC`, the figure is 35.5 µM [falling, single point]; as for `Nc1c(C(=O)Nc2ccccc2)sc2ncc([N+](=O)[O-])cc12`, 0.562 µM [falling, full curve, poor fit]. In the case of `COc1ccc(C2C(C(=O)N3CCN(c4ccccn4)CC3)CCC(=O)N2c2cc(OC)c(OC)c(OC)c2)cc1` (stereo not given), the half-maximal activity concentration (AC50) under setting [1] was 8.91 µM [rising, partial curve, poor fit]. For the molecule `COc1ccc(S(N)(=O)=O)cc1C(=O)OCC(=O)NC(C)(C#N)C1CC1` (stereo not given), the AC50 under setting [1] is 29.1 µM [rising, single point]. Still for that read-out and setting: the same measure for `Cc1ccc2c(c1)c1c(n2CC(O)Cn2nc(C)c(Br)c2C)CCCC1` (stereo not given): 18.4 µM [falling, single point]; for `CCCC(=O)Nc1cnc(NC(=O)c2cccc(F)c2)cc1C`: 20.6 µM [falling, partial curve, poor fit]. On the same count and under the same terms, the same measure for `O=C1NC(c2ccc(-c3ccccc3[N+](=O)[O-])o2)C(C(=O)c2ccc(Cl)cc2)C(O)(C(F)(F)F)N1` (stereo not given): 29.1 µM [falling, single point]; for `CCc1ccccc1NC(=O)C1CC(c2ccc(F)cc2)=NO1` (stereo not given): 3.55 µM [falling, partial curve, poor fit]. For `COc1ccc(N2C(=O)[C@@H]3[C@H](C2=O)[C@H]2c4ccccc4C=CN2[C@@H]3C(=O)Nc2ccccc2)cc1`, the AC50 under setting [1] is 0.731 µM [rising, partial curve, poor fit]. Same read-out and setting: as for `COc1ccc(C)cc1NC(=O)NNC(=O)C(C)Oc1ccc(F)cc1Cl` (stereo not given), the figure is 5.62 µM [rising, full curve]. On the same count and under the same terms, as for `O=C1Oc2ccccc2C(=O)/C1=C/N1CCN(c2ccccc2F)CC1`, the figure is 5.01 µM [falling, partial curve]. As to `O=C(CCCSc1nc2ccccc2s1)NCc1ccc2c(c1)OCO2`, the AC50 under setting [2] was 4.11 µM [rising, partial curve, poor fit]. For the molecule `CCN(Cc1ccccc1)S(=O)(=O)c1ccc(S(=O)(=O)N(Cc2cccc(OC)c2)CC2CCCO2)cc1` (stereo not given), under setting [1], the AC50 was 0.0291 µM [falling, full curve, poor fit].

As for `CCCCN(CCCC)Cc1ccc(N)cc1`, the concentration at half-maximal activity (AC50) under setting [1] is 2.31 µM [rising, full curve, poor fit]. Same read-out and setting: the same measure for `Cc1[nH]c2ccc(F)cc2c(=O)c1SC(F)(F)C(F)C(F)(F)F` (stereo not given): 1.84 µM [rising, full curve, poor fit]; for `Cn1c(SCC(=O)N/N=C/c2ccc([N+](=O)[O-])s2)nnc1-c1ccccc1`: 32.6 µM [falling, single point]. In the case of `Cc1ccc(Cc2c(C)nc3nc(SCC(=O)NCc4ccco4)nn3c2C)cc1`, the AC50 runs as follows: under setting [1], 31.6 µM [rising, single point]; under setting [2], 25.1 µM [falling, single point]. `CC(C)OC(=O)c1ccc(NC(=O)Cn2c(-c3nonc3N)nc3ccccc32)cc1`: the AC50 under setting [1] is 1.3 µM [rising, full curve]. Turning to `COc1ccc(/C=N/NC(=O)c2ccncc2)cc1COc1ccc(NC(C)=O)cc1`, under setting [1], the AC50 was 0.355 µM [rising, full curve, poor fit].

For `Cc1c(NC(C)C)c(=O)n(-c2ccccc2)n1C`, under setting [1], the AC50 is 23.1 µM [rising, partial curve, poor fit].

Regarding `CC1(C)NC(=O)N(CCCCSc2ccc(Cl)cc2)C1=O`, the AC50 under setting [1] was 5.17 µM [falling, partial curve, poor fit]. The same measure, in the same setting: the same measure for `COc1ccc(OC)c(NC(=S)NN2CCN(C)CC2)c1`: 16.4 µM [rising, partial curve, poor fit]; for `COc1cc(C)c(CN2CCC(Cc3ccccc3)CC2)cc1C`: 6.31 µM [falling, single point]. On the same count and under the same terms, as for `CCOc1ccc(Nc2ncnc3c2cnn3C)cc1`, the figure is 0.562 µM [rising, full curve, poor fit]; as for `CCOC(=O)C1(Cc2ccccc2)CCN(Cc2cccn2-c2cccnc2)CC1`, 22.4 µM [falling, single point].

With `CCc1nc(C)cn1S(=O)(=O)c1cc([N+](=O)[O-])ccc1Cl`, the AC50 runs as follows: under setting [1], 35.5 µM [falling, partial curve, poor fit]; under setting [2], 22.4 µM [falling, single point]. As to `[O-][n+]1c2ccccc2c2n1CCN=C2c1ccc(Cl)cc1`, the AC50 under setting [1] was 29.1 µM [falling, single point]. Same read-out and setting: the same measure for `O=C(Nc1ccccc1)c1cc2ccccc2[nH]1`: 5.8 µM [falling, partial curve]; for `O=C(Nc1ccc(F)cc1)C1=CC(=O)N2CCN=C2S1`: 3.55 µM [falling, partial curve, poor fit].

On to `CCC(=O)N(C)CCc1cc2c(c(OC)c1/C=N/NC(=O)c1ccccc1O)OCO2`, for which, under setting [1], the AC50 is 29.1 µM [falling, single point]. On the same count and under the same terms, the same measure for `Cc1nc2ccccc2c(=O)n1/N=C/c1ccc2ccccc2c1O`: 3.98 µM [falling, partial curve]. With `COc1ccc(-c2nnc(SCC(=O)NCc3ccccc3)nc2-c2ccc(OC)c(OC)c2)cc1OC`, the AC50 runs as follows: under setting [1], 12.6 µM [rising, partial curve, poor fit]; under setting [2], 11.2 µM [falling, partial curve]. `NC(=O)c1ccc(-n2nnnc2SCC(=O)Nc2ccc(N3CCOCC3)c(Cl)c2)cc1`: the half-maximal activity concentration (AC50) under setting [1] was 6.51 µM [falling, single point]. Still for that read-out and setting: as for `COc1ccc(C(=O)CCN2CCCCCC2)cc1`, the figure is 35.5 µM [falling, single point]. The same measure, in the same setting: the same measure for `COc1cc(CNC2CCCC2)cc(Cl)c1OCc1ccccc1Cl`: 22.4 µM [falling, single point].

Consider `CCOC(=O)N1CCC(N2C(=O)c3ccccc3C2Nc2ccc3c(C)cc(=O)oc3c2)CC1` (stereo not given), for which the AC50 under setting [1] was 7.31 µM [rising, partial curve, poor fit]. On the same count and under the same terms, the same measure for `Cn1cc(Cl)c(C(=O)NNC(=S)NC2CCCCC2)n1`: 18.4 µM [falling, partial curve]; for `O=C(N/N=C/c1cccc(OC(=O)c2ccccc2Cl)c1)c1cccnc1`: 8.91 µM [falling, partial curve, poor fit].

Consider `CN(C)N1C(N)=C(C#N)C(c2ccc(F)cc2)C2=C1CC(C)(C)CC2=O` (stereo not given), for which the half-maximal activity concentration (AC50) under setting [1] was 35.5 µM [falling, single point]. The same measure, in the same setting: as for `O=C(O)c1ccc(Cl)c(S(=O)(=O)N(Cc2ccccc2)c2ccc(F)cc2)c1`, the figure is 35.5 µM [falling, single point]. Take `CCn1c(COc2ccccc2)nnc1SCC(=O)C(C)(C)C`: under setting [1], the concentration at half-maximal activity (AC50) was 35.5 µM [falling, partial curve, poor fit]. For `CCOc1cc(C2C(C#N)=C(N)OC(C)=C2C(C)=O)c(Br)c(Br)c1OC(C)C` (stereo not given), the AC50 was 6.51 µM [rising, single point] under setting [1] and 4.61 µM [falling, full curve] under setting [2]. Take `Cc1cc(C)c(OCC(=O)NCC2COc3ccccc3O2)c(C)c1` (stereo not given): under setting [1], the AC50 is 23.1 µM [rising, single point]. Take `O=C(CCn1c(=O)[nH]c2ccccc2c1=O)NCCSCc1ccccc1`: under setting [1], the AC50 is 0.631 µM [rising, full curve, poor fit]. Same read-out and setting: as for `CCC(C(=O)OCC(=O)Nc1cccc(S(=O)(=O)NC2=NCCCCC2)c1)c1ccccc1` (stereo not given), the figure is 35.5 µM [falling, single point]; as for `COC(=O)CC1C(=O)NCCN1C(=O)Nc1ccc(Cl)cc1` (stereo not given), 35.5 µM [rising, single point].

As for `O=C(NCC(=O)N1CC(O)CC1C(=O)N1CCCC1C(=O)OCc1ccccc1)OCc1ccccc1` (stereo not drawn) (Cbz-Gly-[Hyp]-Pro-OBn; configuration not given here), the AC50 under setting [2] is 17.8 µM [rising, partial curve, poor fit].

For `Cc1ccccc1C(=O)c1c[nH]c(C(=O)N2CCN(c3ccccc3F)CC2)c1`, the half-maximal activity concentration (AC50) under setting [1] was 35.5 µM [falling, single point].

In the case of `O=C(Cn1nc(-c2ccccc2Cl)ccc1=O)Nc1ccc(Br)cc1`, the half-maximal activity concentration (AC50) under setting [1] was 12.6 µM [falling, single point]. For the molecule `Cc1ccc2cccnc2c1NC(=S)NC(=O)c1ccccc1`, the AC50 under setting [1] is 9.2 µM [falling, partial curve].

For `O=C(N/N=C/c1ccc(OCC(=O)N2CCOCC2)cc1)c1ccccc1Cl`, the AC50 under setting [1] is 22.4 µM [falling, partial curve, poor fit].

Take `CC1CCCCC1NC(=O)c1ccc2c(c1)OCCO2` (stereo not given): under setting [1], the AC50 is 18.4 µM [falling, single point]. Same read-out and setting: the same measure for `CCn1cc(/C=N\NC(=O)c2csc3ccccc23)c(C)n1`: 2.59 µM [falling, full curve, poor fit].

(Values after PubChem BioAssay AID493014 (National Center for Advancing Translational Sciences (NCATS), 2011).)
